{"source": "patent US9868705B2", "about": "“Tetra-aryl cyclobutane inhibitors of androgen receptor action for the treatment of hormone refractory cancer” (The Board of Trustees of the University of Illinois, priority 2013, dated 2018)", "tested_on": "XIP-AR cells", "experiment": "XIP-AR cell proliferation", "details": "XIP-AR overexpressing cells", "note": "At least one compound was matched to its structure with a doubt left."}
{"molecule": "CC(O)(CS(=O)(=O)c1ccc(F)cc1)C(=O)Nc1ccc(C#N)c(C(F)(F)F)c1", "note": "(stereo not shown) [CSX, bicalutamide]", "values": [{"measurement": "cell proliferation, compound alone", "result": "promote cell proliferation"}]}
